Most of the targets with a hit are listed elsewhere, so they are rarer here than in the full data. Single values of this set are uncertain. The list shows a part of the results, in another mix than the full data.
compound: COC(=O)/C=C/c1ccccc1 [methyl cinnamate]; test: log2 ratio of iodoacetamide-alkyne labeling of the cysteine site, DMSO over compound (competition); higher = stronger covalent engagement of the cysteine by the compound, active = 1 or more; details: 500 µM; treatment time 1 h; system: HEK293T cell lysate
Method in brief: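 The log2 competition ratio per cysteine is defined as mean reporter intensity in control channels over mean reporter intensity in compound channels. Lysate from HEK293T cells (2 mg/mL) received electrophile (500 µM) or vehicle for 1 h at ambient temperature, followed by iodoacetamide alkyne for 1 h. Samples were clicked to sCIP-TMT reagents, pooled, trypsin-digested overnight at 37 °C, streptavidin-enriched, acid-eluted and run on Orbitrap Eclipse LC-MS/MS with FAIMS, with quantification in FragPipe. Three replicates with duplicate channels were used, and any cysteine quantified in only one replicate was excluded.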

Sequences of proteins named here, by UniProt entry; tags and fusion partners are left off. A change or cut given only in a name is not applied to a line headed by its entry.
UniProt Q9Y6B6: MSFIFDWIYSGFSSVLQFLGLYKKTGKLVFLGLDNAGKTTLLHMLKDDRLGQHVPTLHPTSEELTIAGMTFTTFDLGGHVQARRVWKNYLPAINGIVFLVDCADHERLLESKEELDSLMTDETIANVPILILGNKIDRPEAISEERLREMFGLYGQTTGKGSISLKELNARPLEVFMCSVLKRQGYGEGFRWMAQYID
UniProt Q9Y4R8, whole entry, looked up: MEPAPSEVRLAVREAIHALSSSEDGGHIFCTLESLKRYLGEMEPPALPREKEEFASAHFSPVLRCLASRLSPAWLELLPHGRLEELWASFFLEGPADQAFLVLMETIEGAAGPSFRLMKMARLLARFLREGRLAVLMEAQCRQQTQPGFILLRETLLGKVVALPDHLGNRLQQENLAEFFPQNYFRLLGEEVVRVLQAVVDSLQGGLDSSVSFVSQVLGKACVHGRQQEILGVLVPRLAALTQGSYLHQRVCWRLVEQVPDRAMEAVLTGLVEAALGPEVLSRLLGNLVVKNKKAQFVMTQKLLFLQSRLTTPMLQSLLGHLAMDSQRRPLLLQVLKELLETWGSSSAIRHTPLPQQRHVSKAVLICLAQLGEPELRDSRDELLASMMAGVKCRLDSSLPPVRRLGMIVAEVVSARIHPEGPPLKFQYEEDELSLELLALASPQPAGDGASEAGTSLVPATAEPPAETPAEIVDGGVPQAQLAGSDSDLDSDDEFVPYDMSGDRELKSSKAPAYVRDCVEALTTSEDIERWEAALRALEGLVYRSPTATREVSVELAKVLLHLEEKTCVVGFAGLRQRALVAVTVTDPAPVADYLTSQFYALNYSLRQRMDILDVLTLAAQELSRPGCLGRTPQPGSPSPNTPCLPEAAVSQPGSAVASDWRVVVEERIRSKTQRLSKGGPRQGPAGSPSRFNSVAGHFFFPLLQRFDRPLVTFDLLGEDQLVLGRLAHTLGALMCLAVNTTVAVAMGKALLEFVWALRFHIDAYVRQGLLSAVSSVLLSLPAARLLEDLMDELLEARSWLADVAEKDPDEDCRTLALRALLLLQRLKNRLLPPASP
UniProt Q9Y490: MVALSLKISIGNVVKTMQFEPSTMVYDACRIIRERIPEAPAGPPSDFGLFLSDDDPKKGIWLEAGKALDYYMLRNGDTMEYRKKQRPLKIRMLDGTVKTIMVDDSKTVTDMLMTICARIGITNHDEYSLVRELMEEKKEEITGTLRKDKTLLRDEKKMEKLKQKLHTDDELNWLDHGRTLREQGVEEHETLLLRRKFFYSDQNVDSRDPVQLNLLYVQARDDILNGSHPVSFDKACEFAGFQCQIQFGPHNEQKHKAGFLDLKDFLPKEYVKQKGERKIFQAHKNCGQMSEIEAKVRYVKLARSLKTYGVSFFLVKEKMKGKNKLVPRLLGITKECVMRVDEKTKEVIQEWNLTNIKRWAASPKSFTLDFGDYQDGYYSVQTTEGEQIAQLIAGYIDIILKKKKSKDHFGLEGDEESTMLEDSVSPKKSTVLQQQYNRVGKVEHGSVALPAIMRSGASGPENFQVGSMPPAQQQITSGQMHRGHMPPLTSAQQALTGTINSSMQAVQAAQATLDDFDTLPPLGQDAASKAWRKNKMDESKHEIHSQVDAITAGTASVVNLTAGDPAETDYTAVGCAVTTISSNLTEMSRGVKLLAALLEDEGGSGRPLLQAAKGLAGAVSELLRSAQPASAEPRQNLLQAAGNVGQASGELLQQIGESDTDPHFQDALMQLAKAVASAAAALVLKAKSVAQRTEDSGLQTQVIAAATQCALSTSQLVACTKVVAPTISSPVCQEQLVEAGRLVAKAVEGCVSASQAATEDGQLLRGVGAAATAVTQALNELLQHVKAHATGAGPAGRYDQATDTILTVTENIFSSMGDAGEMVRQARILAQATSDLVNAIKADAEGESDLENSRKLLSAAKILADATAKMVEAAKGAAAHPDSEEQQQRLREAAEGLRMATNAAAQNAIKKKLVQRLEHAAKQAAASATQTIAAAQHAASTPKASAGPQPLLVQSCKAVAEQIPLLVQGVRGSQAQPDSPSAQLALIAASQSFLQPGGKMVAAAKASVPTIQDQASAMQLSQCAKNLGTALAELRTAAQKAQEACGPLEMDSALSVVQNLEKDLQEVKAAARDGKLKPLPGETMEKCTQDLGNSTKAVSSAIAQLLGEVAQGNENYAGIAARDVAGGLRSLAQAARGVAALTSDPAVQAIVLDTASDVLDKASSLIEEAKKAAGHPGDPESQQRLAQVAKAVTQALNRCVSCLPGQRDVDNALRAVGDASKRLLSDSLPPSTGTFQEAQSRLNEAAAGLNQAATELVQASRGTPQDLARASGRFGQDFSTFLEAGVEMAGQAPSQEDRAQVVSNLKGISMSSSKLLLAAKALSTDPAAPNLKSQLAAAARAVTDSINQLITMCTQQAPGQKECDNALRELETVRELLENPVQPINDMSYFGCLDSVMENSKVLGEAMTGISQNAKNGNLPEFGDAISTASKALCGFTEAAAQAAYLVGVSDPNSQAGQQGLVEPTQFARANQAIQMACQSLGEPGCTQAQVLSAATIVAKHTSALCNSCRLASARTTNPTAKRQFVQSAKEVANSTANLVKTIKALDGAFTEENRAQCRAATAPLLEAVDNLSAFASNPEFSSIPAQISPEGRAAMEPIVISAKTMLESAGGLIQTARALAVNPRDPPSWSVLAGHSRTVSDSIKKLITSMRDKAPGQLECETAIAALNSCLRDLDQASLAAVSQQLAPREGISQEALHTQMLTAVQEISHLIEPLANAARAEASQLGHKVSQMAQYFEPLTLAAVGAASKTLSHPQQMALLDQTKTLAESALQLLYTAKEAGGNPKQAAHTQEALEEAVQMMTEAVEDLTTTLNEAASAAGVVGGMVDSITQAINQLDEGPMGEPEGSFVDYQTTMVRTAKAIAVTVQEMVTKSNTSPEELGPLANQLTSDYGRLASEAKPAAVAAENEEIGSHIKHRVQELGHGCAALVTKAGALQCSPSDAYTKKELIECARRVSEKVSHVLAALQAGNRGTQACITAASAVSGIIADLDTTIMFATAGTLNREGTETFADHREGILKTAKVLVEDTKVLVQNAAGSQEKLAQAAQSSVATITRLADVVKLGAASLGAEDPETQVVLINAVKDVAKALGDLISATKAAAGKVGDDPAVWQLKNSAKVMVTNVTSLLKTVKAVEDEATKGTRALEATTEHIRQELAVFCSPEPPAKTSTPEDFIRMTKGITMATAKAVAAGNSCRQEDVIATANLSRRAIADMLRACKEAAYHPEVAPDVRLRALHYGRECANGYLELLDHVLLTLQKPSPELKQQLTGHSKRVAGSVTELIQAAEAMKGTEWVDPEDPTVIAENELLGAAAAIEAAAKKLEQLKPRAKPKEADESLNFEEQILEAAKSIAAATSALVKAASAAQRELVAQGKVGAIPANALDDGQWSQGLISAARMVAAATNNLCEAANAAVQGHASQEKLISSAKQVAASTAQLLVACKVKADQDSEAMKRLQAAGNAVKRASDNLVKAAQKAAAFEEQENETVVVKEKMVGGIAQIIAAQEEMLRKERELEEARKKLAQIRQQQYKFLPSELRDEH
UniProt Q9Y5U2: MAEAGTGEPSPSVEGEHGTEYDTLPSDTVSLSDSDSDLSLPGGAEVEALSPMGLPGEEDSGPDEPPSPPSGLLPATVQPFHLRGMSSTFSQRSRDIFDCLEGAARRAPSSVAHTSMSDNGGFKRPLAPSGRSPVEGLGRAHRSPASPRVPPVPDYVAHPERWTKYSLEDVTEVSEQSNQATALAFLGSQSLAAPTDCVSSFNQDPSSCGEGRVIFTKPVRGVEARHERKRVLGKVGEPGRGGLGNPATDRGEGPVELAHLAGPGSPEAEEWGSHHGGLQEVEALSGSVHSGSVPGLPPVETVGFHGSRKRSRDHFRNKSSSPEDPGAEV
UniProt Q9Y508: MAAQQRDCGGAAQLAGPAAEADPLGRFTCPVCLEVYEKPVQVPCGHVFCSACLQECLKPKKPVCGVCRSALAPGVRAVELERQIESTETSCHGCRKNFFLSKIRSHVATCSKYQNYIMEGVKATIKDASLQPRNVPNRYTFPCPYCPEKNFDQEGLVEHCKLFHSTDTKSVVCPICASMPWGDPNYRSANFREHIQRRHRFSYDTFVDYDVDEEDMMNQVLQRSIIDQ
UniProt Q9Y5P6: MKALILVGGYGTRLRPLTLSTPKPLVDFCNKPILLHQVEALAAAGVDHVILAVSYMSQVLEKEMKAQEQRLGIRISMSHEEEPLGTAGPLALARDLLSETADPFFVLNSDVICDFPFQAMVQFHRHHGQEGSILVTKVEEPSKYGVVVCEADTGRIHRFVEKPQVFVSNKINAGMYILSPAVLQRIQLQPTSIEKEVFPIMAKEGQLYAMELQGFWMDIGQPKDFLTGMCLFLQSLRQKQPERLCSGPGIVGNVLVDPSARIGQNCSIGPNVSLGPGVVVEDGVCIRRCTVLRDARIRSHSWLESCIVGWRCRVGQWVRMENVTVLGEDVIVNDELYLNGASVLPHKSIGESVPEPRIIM
UniProt Q9Y4P8: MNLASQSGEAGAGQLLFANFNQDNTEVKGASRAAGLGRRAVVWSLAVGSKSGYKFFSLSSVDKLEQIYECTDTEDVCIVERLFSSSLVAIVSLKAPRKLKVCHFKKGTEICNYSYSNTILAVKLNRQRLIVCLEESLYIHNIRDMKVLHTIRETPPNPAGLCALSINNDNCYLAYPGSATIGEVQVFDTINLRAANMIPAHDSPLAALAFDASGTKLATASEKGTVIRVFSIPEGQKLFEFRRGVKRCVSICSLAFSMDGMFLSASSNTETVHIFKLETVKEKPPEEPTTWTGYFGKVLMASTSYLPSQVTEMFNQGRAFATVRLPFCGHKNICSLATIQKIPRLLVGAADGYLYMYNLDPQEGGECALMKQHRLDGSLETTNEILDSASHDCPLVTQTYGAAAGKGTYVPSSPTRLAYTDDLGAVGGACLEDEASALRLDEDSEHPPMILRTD
UniProt Q9Y5L0: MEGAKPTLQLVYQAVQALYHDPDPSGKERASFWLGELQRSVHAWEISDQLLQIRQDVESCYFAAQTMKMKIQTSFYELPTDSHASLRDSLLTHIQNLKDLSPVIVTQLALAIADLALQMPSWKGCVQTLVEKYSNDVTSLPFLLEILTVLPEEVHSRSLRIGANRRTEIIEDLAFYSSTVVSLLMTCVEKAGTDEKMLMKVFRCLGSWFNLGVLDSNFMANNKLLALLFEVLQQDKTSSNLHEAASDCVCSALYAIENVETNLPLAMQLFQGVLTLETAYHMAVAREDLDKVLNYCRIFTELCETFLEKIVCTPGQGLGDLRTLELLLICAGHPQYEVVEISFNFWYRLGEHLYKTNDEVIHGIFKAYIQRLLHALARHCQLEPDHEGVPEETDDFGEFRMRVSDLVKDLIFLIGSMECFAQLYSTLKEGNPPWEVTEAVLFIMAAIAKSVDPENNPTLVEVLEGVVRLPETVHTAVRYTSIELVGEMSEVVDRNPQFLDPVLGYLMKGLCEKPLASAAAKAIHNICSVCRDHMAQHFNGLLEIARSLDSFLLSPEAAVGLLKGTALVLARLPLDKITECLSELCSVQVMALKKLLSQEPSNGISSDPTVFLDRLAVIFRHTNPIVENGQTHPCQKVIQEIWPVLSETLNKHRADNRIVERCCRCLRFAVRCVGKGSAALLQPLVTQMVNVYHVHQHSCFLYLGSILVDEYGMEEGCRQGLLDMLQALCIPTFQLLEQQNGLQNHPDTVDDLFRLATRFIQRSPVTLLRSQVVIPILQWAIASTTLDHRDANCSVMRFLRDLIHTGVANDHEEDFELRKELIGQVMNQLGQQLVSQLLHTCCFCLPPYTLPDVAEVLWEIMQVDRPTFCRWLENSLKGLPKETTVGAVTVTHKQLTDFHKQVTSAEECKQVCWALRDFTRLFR
UniProt Q9Y496, whole entry: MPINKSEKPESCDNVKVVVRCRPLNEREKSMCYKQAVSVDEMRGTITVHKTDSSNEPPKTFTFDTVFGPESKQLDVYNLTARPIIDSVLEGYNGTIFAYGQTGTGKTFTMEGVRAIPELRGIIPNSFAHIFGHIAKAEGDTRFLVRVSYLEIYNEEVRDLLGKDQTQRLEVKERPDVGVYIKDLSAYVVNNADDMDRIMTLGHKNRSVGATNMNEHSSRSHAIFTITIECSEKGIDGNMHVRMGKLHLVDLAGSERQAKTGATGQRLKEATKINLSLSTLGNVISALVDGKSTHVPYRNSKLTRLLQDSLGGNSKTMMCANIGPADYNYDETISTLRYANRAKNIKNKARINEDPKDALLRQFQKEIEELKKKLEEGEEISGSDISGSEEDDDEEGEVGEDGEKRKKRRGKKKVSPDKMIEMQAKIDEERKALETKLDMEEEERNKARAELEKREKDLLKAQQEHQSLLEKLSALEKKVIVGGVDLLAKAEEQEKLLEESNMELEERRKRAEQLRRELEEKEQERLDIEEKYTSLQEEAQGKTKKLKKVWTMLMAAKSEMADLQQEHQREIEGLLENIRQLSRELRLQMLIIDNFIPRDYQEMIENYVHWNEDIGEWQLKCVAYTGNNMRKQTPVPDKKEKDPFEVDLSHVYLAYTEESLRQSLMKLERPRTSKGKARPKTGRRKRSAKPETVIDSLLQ

Target	log2 ratio of iodoacetamide-alkyne labeling
PSAT1 C80 (UniProt Q9Y617)	inactive: 0.0881
USP16 C205 (UniProt Q9Y5T5)	inactive: 0.0118
SAR1B C102 (UniProt Q9Y6B6)	inactive: -0.484
TELO2 C628 (UniProt Q9Y4R8)	inactive: -0.232
TLN1 C732 (UniProt Q9Y490)	inactive: 0.427
TSSC4 C99 (UniProt Q9Y5U2)	inactive: 0.0575
AFG3L2 C402 (UniProt Q9Y4W6)	inactive: 0.0628
SAMM50 C65 (UniProt Q9Y512)	inactive: -0.208
UniProt Q9Y520_C481	inactive: 0.592
TAF6L C81 (UniProt Q9Y6J9)	inactive: -0.129
FAM169A C138 (UniProt Q9Y6X4)	inactive: 0.18
UniProt Q9Y520_C177	inactive: 0.377
TACC3 C662 (UniProt Q9Y6A5)	inactive: 0.162
TELO2 C367 (UniProt Q9Y4R8)	inactive: -0.306
UniProt Q9Y5J5_C87	inactive: -0.108
RNF114 C8 (UniProt Q9Y508)	inactive: 0.377
SNX5 C397 (UniProt Q9Y5X3)	inactive: -0.0947
TBL2 C335 (UniProt Q9Y4P3)	inactive: 0.451
TELO2 C30 (UniProt Q9Y4R8)	inactive: 0.208
GMPPB C230 (UniProt Q9Y5P6)	inactive: 0.0759
FHOD1 C650 (UniProt Q9Y613)	inactive: 0.232
WIPI2 C393 (UniProt Q9Y4P8)	inactive: 0.194
TLN1 C956 (UniProt Q9Y490)	inactive: 0.315
TLN1 C1939 (UniProt Q9Y490)	inactive: 0.471
UTP18 C90 (UniProt Q9Y5J1)	inactive: 0.15
FAM169A C11 (UniProt Q9Y6X4)	inactive: 0.281
TNPO3 C912 (UniProt Q9Y5L0)	inactive: 0.344
KIF3A C621 (UniProt Q9Y496)	inactive: 0.107
NUBP2 C54 (UniProt Q9Y5Y2)	inactive: 0.217
MAP3K4 C163 (UniProt Q9Y6R4)	inactive: -0.326

Source: the supplement of paper PMC11006884
